No constants are given. Whether binding was seen depends on the method and setting. Some results given as binding are weak or reduced against the parent protein; the word gives no strength.
Target: PTX3/FL, full-length fragment of PTX3 recombinant protein listed as SEQ ID NO:15 (human) (UniProt P26022)
Experiment: ELISA on coated PTX3/FL (FIG. 5)

The chains behind the UniProt entries cited, without tags or fusion partners. Where a name states a change or a piece, a line headed by the entry shows the natural chain unless it says otherwise.
UniProt P26022: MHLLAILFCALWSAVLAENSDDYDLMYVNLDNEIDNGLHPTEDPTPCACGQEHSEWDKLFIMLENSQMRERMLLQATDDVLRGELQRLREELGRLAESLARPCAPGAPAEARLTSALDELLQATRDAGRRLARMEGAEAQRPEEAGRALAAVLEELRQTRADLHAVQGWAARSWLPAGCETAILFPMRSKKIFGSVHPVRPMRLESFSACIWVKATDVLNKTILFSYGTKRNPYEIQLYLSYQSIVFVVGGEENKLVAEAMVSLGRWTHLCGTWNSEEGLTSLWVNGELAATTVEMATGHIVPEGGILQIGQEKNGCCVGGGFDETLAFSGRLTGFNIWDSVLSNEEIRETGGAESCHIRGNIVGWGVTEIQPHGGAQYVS

B1: PTX3 monoclonal antibody of EXAMPLE 1 (antibody, V domains shown)
VH: EVQLQQSGAELVKPGASVKLSCTASDFNIKHTYLHWVLQRPEQGLEWIGRIDPANGDTKYDPKFQGKATITADTSSNTAYLHLSSLTSEDTAVYYCARVTTVVGFDYWGQGTTLTVSS
VL: QIVLTQSPAIMSTSLGERVTMTCTASSSVISTYLNWYQQKPGSSPKLWIYSTSNLASGVPARFSGSGSGTSYSLTISSMEAEDAATYFCHQFQRSPLTFGAGTKLELKR
notes: also called PTX3 mAb
binding: binds

— patent US20220119507A1 (OHEALTH BIOPHARMACEUTICAL SUZHOU, published 2022)
